Assay results from PubChem BioAssay AID2551 (National Center for Advancing Translational Sciences (NCATS), 2010).
The whole screen tested about 310,000 compounds, of which about 17,000 (5.5%) were called active. The shares of active, inactive and inconclusive entries below differ from those in the screen. Calls come from the whole dose curve; as a rule, active = well fitted inhibition curve with a large enough effect; inconclusive = small, poorly fitted or top-dose-only effect, or effect the other way; inactive = no such curve, though single readings can be large or run the other way. Potencies beside an inconclusive call are fits to weak or partial responses and may not hold up.

Chains of the proteins cited; added tags and fusions are not shown. Lines headed by an entry give the natural chain unless they say otherwise; changes in a name come on top.
UniProt P51450: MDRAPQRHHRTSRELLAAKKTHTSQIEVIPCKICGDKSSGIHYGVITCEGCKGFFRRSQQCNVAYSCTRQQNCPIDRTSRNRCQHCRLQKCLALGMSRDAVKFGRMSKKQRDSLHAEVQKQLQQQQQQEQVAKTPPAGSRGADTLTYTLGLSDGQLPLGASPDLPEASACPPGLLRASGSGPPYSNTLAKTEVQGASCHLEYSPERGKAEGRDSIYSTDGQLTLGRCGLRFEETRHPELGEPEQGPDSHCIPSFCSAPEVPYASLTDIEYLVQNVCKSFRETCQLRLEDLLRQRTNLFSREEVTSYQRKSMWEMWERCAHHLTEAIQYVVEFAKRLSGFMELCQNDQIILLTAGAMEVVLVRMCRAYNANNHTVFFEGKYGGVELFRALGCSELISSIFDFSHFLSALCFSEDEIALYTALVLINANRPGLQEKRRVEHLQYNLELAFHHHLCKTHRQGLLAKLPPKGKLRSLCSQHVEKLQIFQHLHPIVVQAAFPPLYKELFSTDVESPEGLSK

Each compound was assayed against Nuclear receptor ROR-gamma (Mus musculus) (UniProt P51450) (assay: qHTS for inhibitors of ROR gamma transcriptional activity). Settings: Drosophila S2 Gal4-RORgamma UAS-luciferase reporter, 20 h; activity change, negative = inhibition: at 53.6 µM (top of the series).
Summary of the method: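 Drosophila Schneider cells stably carrying a metallothionein-driven Gal4 DBD–ROR gamma fusion and a UAS-Photinus luciferase reporter were exposed to compound for 1 hr, then induced with copper sulfate (700 uM final) for 20 hr at ambient temperature before luminescence reading.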
% is set by controls: 0 for no effect and ±100 for the full control effect; potency is the fitted concentration of half-maximal effect.
Note: nearly all actives have a fitted effect of over 60% in size.

Compound	Potency	activity change, negative = inhibition
Cc1cc(C)c2[nH]c(=O)c(CN(CC3CCCO3)C(=S)Nc3ccccc3)cc2c1 (stereo not drawn)	inactive	–
COC(=O)c1ccc(C(=O)OC)c(NC(=S)N2CCCCC2C)c1 (stereo not drawn)	active: 15.8 µM	–
CCN1C(C)=C(C(=O)OC)C(c2ccccc2)N2C(=O)[C@@]3(C(=O)OC)O[C@@]12C1C(=O)N(C)C(=O)C13 (stereo partly drawn)	–	inactive: -6.48% [at 10 µM]
C#CC(=O)N(c1ccc(OC)c(OC)c1)C(C(=O)NC1CCCC1)c1cccs1 (stereo not drawn)	active: 2.51 µM	–
Cc1ccc(Cn2nnc3c(=O)[nH]c(C4CCN(S(=O)(=O)c5ccc(S(=O)(=O)NC6CC6)cc5)CC4)nc32)cc1	inactive	–
CS(=O)(=O)NCCOc1ccc(S(=O)(=O)NCCOc2ccccc2)cc1	inconclusive: 6.31 µM [activator, single point]	–
CCN(CC)c1ccc2cc(NC(=O)CCC(=O)O)c(=O)oc2c1	active: 0.794 µM	–
CC1(C)CC(C(CCN(Cc2ccccc2)C(=O)c2ccco2)c2ccc(F)cc2)CCO1 (stereo not drawn)	inconclusive: 35.5 µM [inhibitor, single point]	–
CCn1ccnc1CN(C)Cc1nc(CCC(C)C)no1	inconclusive: 10 µM [inhibitor, partial curve]	–
Cc1cccc(NC(=O)CCCCCN2C(=O)c3ccccc3C2=O)n1	inconclusive: 2.82 µM [inhibitor, full curve]	–
CCOC(=O)C1CCN(C(=O)CSc2ccc(Cl)cc2)CC1	inconclusive: 0.0562 µM [inhibitor, full curve, poor fit]	–
COc1ccc(Cc2nc3ccccc3[nH]2)cc1OC	inconclusive: 7.94 µM [activator, partial curve]	–
Cc1ccc(SC[C@H](Cc2ccccc2)N2CC[C@@H](NC(=O)OCc3ccccc3)CCC2=O)cc1	inconclusive: 10 µM [activator, partial curve]	–
Cc1n[nH]c(=S)n1-c1ccc(Cl)cc1	inconclusive: 17.8 µM [inhibitor, single point]	–
CCCN1C(=O)C(Cc2nc3ccccc3c(=O)n2-c2ccccc2)c2cc(C)ccc21 (stereo not drawn)	inconclusive: 11.2 µM [activator, partial curve]	–
CC(=O)N1CCc2cc(S(=O)(=O)NCCC(=O)NCCc3ccc(Cl)cc3)ccc21	inconclusive: 25.1 µM [activator, single point]	–
COc1ccc(C(=O)C(/C=N/O)=N/Nc2ccc(F)cc2)cc1	inconclusive: 22.4 µM [activator, partial curve, poor fit]	–
O=C(COc1ccccc1)NC(=S)Nc1cccc(NC(=O)c2ccccc2Cl)c1	inconclusive: 35.5 µM [inhibitor, single point]	–

Arranged by molecular weight (high to low): part of the list above
Compound	Potency	activity change, negative = inhibition
CC1(C)CC(C(CCN(Cc2ccccc2)C(=O)c2ccco2)c2ccc(F)cc2)CCO1 (stereo not drawn)	inconclusive: 35.5 µM [inhibitor, single point]	–
CCCN1C(=O)C(Cc2nc3ccccc3c(=O)n2-c2ccccc2)c2cc(C)ccc21 (stereo not drawn)	inconclusive: 11.2 µM [activator, partial curve]	–
Cc1cccc(NC(=O)CCCCCN2C(=O)c3ccccc3C2=O)n1	inconclusive: 2.82 µM [inhibitor, full curve]	–
